For at least one compound, name, drawing or mass did not settle the structure.
System: ADAR1
Test: Western blot analysis of secondary AML CD34+ cells treated with JAK inhibitors
Type: cell-based
Conditions: secondary AML (patient 255) CD34+ cells; 1 nM, 10 nM, 100 nM; compared with JAK3 inhibitor FM-381

SMILES | ADAR1-inhibiting activity (result in words)
N#CC[C@H](C1CCCC1)n1cc(-c2ncnc3[nH]ccc23)cn1 [ruxolitinib] | can be used as ADAR-1 inhibiting agents
Cc1cnc(Nc2ccc(OCCN3CCCC3)cc2)nc1Nc1cccc(S(=O)(=O)NC(C)(C)C)c1 [fedratinib] | can be used as ADAR-1 inhibiting agents

Source: patent US20250101427A1, “COMPOSITIONS AND METHODS FOR USING PURIFIED HUMAN RNA EDITING ENZYMES” (The Regents of the University of California, priority 2021, published 2025)
